# These are yes or no findings as the source states them, for the method shown. Some results given as binding are weak or reduced against the parent protein; the word gives no strength.
# Sequences of proteins named here, by UniProt entry; tags and fusion partners are left off. Residues count along the entry.
# UniProt P42224, residues 710-750: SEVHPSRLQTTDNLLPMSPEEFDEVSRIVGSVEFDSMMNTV
# UniProt P45481, residues 1764-1850: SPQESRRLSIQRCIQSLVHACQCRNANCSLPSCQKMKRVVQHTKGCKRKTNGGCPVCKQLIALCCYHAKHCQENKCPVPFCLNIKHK
# Target: 6His-Gb1-STAT1 (710-750) (UniProt P42224)
# Assay: co-purification on Ni-NTA
substance,measurement,value
"TAZ2 domain of CBP, CBP (1764-1850) (from UniProt P45481 1764-1850) (domain or fragment)",binding,binds

# From doi:10.1101/2020.12.12.422504
